PubChem BioAssay AID1053208 | Peter MacCallum Cancer Centre – 2014

- Aim: 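Synthetic lethal interactions between gene loss and doxorubicin in osteosarcoma cells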 (primary screen)
- System: mouse osteosarcoma cells, early-passage culture from an engineered mouse model of fibroblastic bone tumour
- Reagent: siRNA pool against mouse genes, 40 nM
- Timing: about 120 h (48 h before drug, then 72 h with drug)
- Challenge: doxorubicin 100 nM for 72 h, roughly 30-40% inhibitory dose
- Measured: 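Luminescent ATP signal taken as viability with or without 100 nM doxorubicin for 72 h; mean of two wells set against non-targeting siRNA and turned into robust z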
- Direction: viability z-score with doxorubicin and doxorubicin viability vs non-targeting: higher = more viable cells under doxorubicin; viability z-score without drug: higher = more viable cells with knock-down alone; z-score of drug to no-drug ratio: higher = less drug sensitisation by knock-down
- Active means: 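Called active if knock-down leaves viability unchanged without drug (z within -2 to 2) but lowers it with doxorubicin (z at or under -2)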
Shown is an unselected part of about 17,000 reagents tested. Over the whole deposit, 788 (4.7%) were called active. 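Calls rest on z-score classes alone; an extra cut-off of viability at most 70% of control was not applied to them.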 Reagents against one gene are numbered here. Reagent sequences are not shown.

| gene knocked down | reagent | combined z-score class | viability z-score with doxorubicin | viability z-score without drug | z-score of drug to no-drug ratio | doxorubicin viability vs non-targeting | Call |
| --- | --- | --- | --- | --- | --- | --- | --- |
| Atxn7 | 1 | no change with or without drug | 0.56 | 1.52 | -0.34 | 0.99 | inactive |
| Vti1a | 1 | high cell count with doxorubicin only | 2.92 | 1.85 | 1.69 | 1.2 | inactive |
| Vti1a | 2 | low cell count with doxorubicin only | -2.36 | 1.18 | -2.92 | 0.73 | active |
| Rexo4 | 1 | no change with or without drug | 0.22 | -0.51 | 0.67 | 0.96 | inactive |
| Thg1l | 1 | high cell count with doxorubicin only | 2.14 | 1.18 | 1.46 | 1.13 | inactive |
| Pcdhga4 | 1 | no change with or without drug | -0.22 | -0.51 | 0.22 | 0.92 | inactive |
| Zfp277 | 1 | no change with or without drug | 1.12 | 1.18 | 0.45 | 1.04 | inactive |
| Gatad2b | 1 | no change with or without drug | 0.34 | -0.17 | 0.56 | 0.97 | inactive |
| Plek2 | 1 | no change with or without drug | 0 | -1.18 | 1.01 | 0.94 | inactive |
| Xpot | 1 | no change with or without drug | -0.67 | 1.18 | -1.35 | 0.88 | inactive |
| Bcas1 | 1 | no change with or without drug | 0.45 | 0 | 0.56 | 0.98 | inactive |
| Cdpf1 | 1 | high cell count without drug only | -1.91 | 2.19 | -3.04 | 0.77 | inactive |
| Inka2 | 1 | low cell count with doxorubicin only | -2.36 | -0.84 | -1.91 | 0.73 | active |
| Vmn1r64 | 1 | low cell count with doxorubicin only | -2.14 | -1.01 | -1.57 | 0.75 | active |
| Crybg3 | 1 | no change with or without drug | -0.34 | -0.51 | 0.11 | 0.91 | inactive |
| H2aj | 1 | no change with or without drug | 1.57 | 0.51 | 1.35 | 1.08 | inactive |
| Klf5 | 1 | no change with or without drug | -0.45 | 0.84 | -0.9 | 0.9 | inactive |
| Txn2 | 1 | no change with or without drug | -1.35 | 0.34 | -1.46 | 0.82 | inactive |
| Gbgt1 | 1 | no change with or without drug | -0.22 | -0.17 | 0 | 0.92 | inactive |
| Rufy2 | 1 | high cell count with and without drug | 2.81 | 2.87 | 0.9 | 1.19 | inactive |

Reagents above with an active call:
| gene knocked down | reagent | combined z-score class | viability z-score with doxorubicin | viability z-score without drug | z-score of drug to no-drug ratio | doxorubicin viability vs non-targeting | Call |
| --- | --- | --- | --- | --- | --- | --- | --- |
| Vti1a | 2 | low cell count with doxorubicin only | -2.36 | 1.18 | -2.92 | 0.73 | active |
| Inka2 | 1 | low cell count with doxorubicin only | -2.36 | -0.84 | -1.91 | 0.73 | active |
| Vmn1r64 | 1 | low cell count with doxorubicin only | -2.14 | -1.01 | -1.57 | 0.75 | active |
